Measurements: patent US6686469B2, “Pesticidal pyrimidine-derivatives” (Novartis Animal Health US, Inc., priority 1999, dated 2004)
Some entries share one result that the patent states for a list of compounds.

What was measured:
Assay type in all cases: in vivo
Diabrotica balteata = assay: Activity against Diabrotica balteata; details: corn seedlings sprayed with 100 ppm active ingredient, second-stage larvae, 6 days later
Tetranychus urticae = assay: Activity against Tetranychus urticae; details: young bean plants, mixed population, sprayed with 100 ppm active ingredient, 6 days at 25° C.
Spodoptera littoralis = assay: Activity against Spodoptera littoralis; details: young soya plants sprayed with 100 ppm active ingredient, third-stage caterpillars, 3 days later

| Structure (SMILES) | efficacy: percentage reduction of the population (% response) (Diabrotica balteata) | efficacy: percentage reduction of the population (% response) (Tetranychus urticae) | efficacy: percentage reduction of the population and of the feeding damage (% response) (Spodoptera littoralis) |
| --- | --- | --- | --- |
| Fc1ccc(-c2ccc(-c3cnc(-c4c(F)cccc4F)nc3)cc2)cc1Cl [Compound 1.1] | over 80% | over 80% | – |
| Fc1ccc(-c2ccc(-c3cnc(-c4c(Cl)cccc4Cl)nc3)cc2)cc1Cl [Compound 1.5] | – | over 80% | – |
| Fc1cccc(Cl)c1-c1ncc(-c2ccc(-c3cc(Cl)cc(Cl)c3)cc2)cn1 [Compound 1.16] | – | – | over 80% |
| Fc1cccc(F)c1-c1ncc(-c2ccc(-c3cc(Cl)cc(Cl)c3)cc2)cn1 [Compound 1.21] | – | over 80% | – |
| Fc1cccc(F)c1-c1nccc(-c2ccc(-c3cccc(C(F)(F)F)c3)cc2)n1 [Compound 2.4] | over 80% | – | over 80% |
